From PubChem BioAssay record AID1159506 (NCATS, 2015).

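Luminescence from an EWS-FLI1 target-promoter (NR0B1) reporter, set against a CMV-promoter reporter, two days after silencing single genes in TC32 Ewing sarcoma cells.
Each siRNA was applied at 20 nM.
A z-score of the log NR0B1-over-CMV signal, less the median of siRNAs with the same seed; more negative means a stronger specific loss of the NR0B1 reporter.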

This is part of the screen; most of the strongest results are not listed here.
Sequences are the guide (antisense) strand, without overhang.

| strand | target gene | seed-corrected z-score |
|---|---|---|
| `UCCACGAUGAGGAUCUUGC` | HDAC4 | 0.3893 |
| `UACUCCAUAGUCUCUGGGC` | PAQR4 | 0.7967 |
| `UUGCGUACUGGUUUGGAUG` | BBS7 | -1.198 |
| `UAGCUGAAGGUGUAGUUCG` | ATF1 | 0.3173 |
| `UUGUUGUAGAUUUACCAUC` | G2E3 | 0.26 |
| `UCUGGGUUGGUCCAUCUCC` | TNS2 | 0.7789 |
| `UAUCAGGUUAUGUUGCAUG` | BRCA1 | -1.745 |
| `UUUGGUAGAGGCGACGUAG` | CTNNA1 | 0.05222 |
| `UACCGUAUCCUUUCGUUCG` | ADGRB2 | 0.09326 |
| `AACACGAAGAUUAAAAUCG` | IPP | 0.5382 |
| `UGUUCCAUAGCAGUAAUCC` | C1orf101 | -0.1764 |
| `UAAGGAGUACUUGUCAGGC` | PGK1 | 0.3378 |
| `AUUGCAAUUAUUUAGAGCG` | SLC9A3R2 | -1.052 |
| `AACAGCGCAGCAAGUAUCG` | LYRM9 | 0.02536 |
| `AAAGUUUGCAUCCAUCCCU` | LILRB1 | 0.1912 |
| `AUUCGAAUCUGGUUGUUUG` | MRPS30 | 0.1806 |
| `AAUGUAACCAUCCGGUGCC` | DDX1 | -0.004141 |
| `UCCAAUUCUUCUUUGAAUG` | HNRNPA1P4 | 0.2187 |
| `AGGAAAACAAGGGAUCUGC` | APLN | 1.898 |
| `AAAGCAAUCAGGCAGAACA` | NKG7 | -0.6704 |
| `UUUGAUUAAAUUCUGAGGC` | ALB | -0.2558 |
| `UAGCGGGCAAUGAAUUUGG` | XAB2 | -0.3858 |
| `UUGGUAAAAUUCGCAAUCC` | LAMP2 | 0.3045 |
| `UUCCGUUCUAGUGCAUGUG` | BAZ2B | -0.3968 |
| `UCAUGAUAAACUCAUAGGC` | ABCB4 | 1.183 |
| `UUUCUUUGAGGGUAAGUGG` | SLC4A5 | 0.5545 |
| `UUACAUCUUAUUCUAACUC` | C17orf89 | 0.4758 |
| `AGUGUGAGGAGAAUCGUCC` | HCP5 | -0.3393 |
| `UCCCGGUUCAGUCGGAUCU` | TEKT4 | -0.2471 |
| `UCUGUCACAAUCACACGGG` | TMEM129 | -0.6686 |
| `AAAGCGACGACGCACAUUC` | CFAP20 | 0.175 |
| `AAUGCGAUCACGAUGGAAU` | MRAP | 0.5951 |
| `UUGGAAGUAACCUUACUGA` | DMTN | 1.149 |
| `UAUCUACUUUGUAUUGAGC` | RPEL1 | 1.139 |
| `AGACGAAUCUGCUUUGUUC` | OR51L1 | 0.8492 |
| `AAAGGUACUCGGGUGGAAG` | HDAC10 | -0.04356 |
| `UUCCUUAAAGAGACUCUUG` | ACTL8 | 0.09632 |
| `AUCUCGUACACCUUGAUCU` | KIF26A | -0.1706 |
| `UAAGCUCUAAUGCGUCGGC` | TNIP2 | 0.03732 |
| `AACGGUGUUGCAUAGACCC` | AASDH | 0.0309 |
| `UUUUCUCUAACUCUUUGUC` | UBXN1 | -0.4066 |
| `UAUGCCGUGACACUUGUUG` | ZMYM6 | -1.242 |
| `UAGGGUACGACUAGAGGCC` | LRRC73 | -0.2186 |
| `AGAAUGUAGAAGUACUCGU` | KCNE4 | -1.379 |
| `UAGGCAGCAACAGUAACGG` | PTPRF | -0.7032 |
| `UUCUCAUCAAGGUAGAAGG` | FCRL6 | 0.09097 |
| `UAGGCAUACAGACUGGUGG` | NLRP13 | -1.178 |

The first 6 entries again:

- UCCACGAUGAGGAUCUUGC against HDAC4 : seed-corrected z-score 0.3893
- UACUCCAUAGUCUCUGGGC against PAQR4 : seed-corrected z-score 0.7967
- UUGCGUACUGGUUUGGAUG against BBS7 : seed-corrected z-score -1.198
- UAGCUGAAGGUGUAGUUCG against ATF1 : seed-corrected z-score 0.3173
- UUGUUGUAGAUUUACCAUC against G2E3 : seed-corrected z-score 0.26
- UCUGGGUUGGUCCAUCUCC against TNS2 : seed-corrected z-score 0.7789